PubChem BioAssay AID1224826 | NIAID, 2016
The whole screen tested about 17,000 reagents; this is a part drawn at random. Of all reagents, about 1,110 (6.6%) are marked active. 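Active means lowered or raised reporter signal; replicate intensities are raw and not normalised per plate.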 Unmarked entries are inactive. Reagents against one gene are numbered here.

- Aim: 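Genes that change LPS-induced Tnf promoter activity in mouse macrophages when knocked down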 (primary screen)
- System: RAW264.7 G9 macrophages from mouse bearing reporters for p65 (GFP) and the Tnf promoter (mCherry)
- Reagents: siRNA pool against mouse genes, 100 nM
- Timing: 16 h of LPS stimulation, after 2 days of siRNA transfection
- Conditions: bacterial lipopolysaccharide (Salmonella minnesota R595), 10 ng/ml
- Read-out: 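Nuclear mCherry signal of the Tnf promoter reporter measured by imaging after background removal, scaled to each plate median and turned into robust z-scores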
- Reading the numbers: Tnf reporter robust z-score: higher = stronger Tnf promoter reporter signal after LPS; Tnf reporter intensity: higher = stronger Tnf promoter reporter signal
- Call rule: 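a well counts as active at a score of -1.3 or below (Tlr4 knock-down control median) or above 3 (raised signal); controls and wells holding fewer than 50 cells are excluded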
- Meaning of the calls: active = Tnf reporter clearly lowered or raised; inactive = no clear change in Tnf reporter

no.	Target gene	pool no.	Tnf reporter robust z-score	fewer than 50 cells in well	Tnf reporter intensity, replicate 1	Tnf reporter intensity, replicate 2
1	Calca (calcitonin/calcitonin-related polypeptide, alpha)	1	-0.14	enough cells in well	162	358
2	Amot (angiomotin)	1	0.32	enough cells in well	236	201
3	Ap1ar	1	0.41	enough cells in well	226	246
4	Tbck (TBC1 domain containing kinase)	1	4.36 (active)	enough cells in well	303	362
5	Tbck (TBC1 domain containing kinase)	2	-0.12	enough cells in well	185	154
6	Twnk (twinkle mtDNA helicase)	1	-0.55	enough cells in well	179	162
7	Fbln5 (fibulin 5)	1	1.09	enough cells in well	352	273
8	Or5j1 (olfactory receptor family 5 subfamily J member 1)	1	1.35	enough cells in well	278	214
9	Bend6 (BEN domain containing 6)	1	-1.81 (active)	enough cells in well	69	62
10	Dlx1 (distal-less homeobox 1)	1		fewer than 50 cells per well; well left out of calls	97.3	69.2
11	Or8b53 (olfactory receptor family 8 subfamily B member 53)	1	3.04 (active)	enough cells in well	304	264
12	Ccdc169 (coiled-coil domain containing 169)	1	-0.5	enough cells in well	127	144
13	Aspdh (aspartate dehydrogenase domain containing)	1	-0.62	enough cells in well	242	51.1
14	Rpl9 (ribosomal protein L9)	1		fewer than 50 cells per well; well left out of calls	85.5	72
15	Ano1 (anoctamin 1, calcium activated chloride channel)	1	-0.08	enough cells in well	195	133
16	Zfhx3 (zinc finger homeobox 3)	1	0.7	enough cells in well	181	198
17	Etv6 (ets variant 6)	1	0.66	enough cells in well	263	300
18	Prx (periaxin)	1	-0.07	enough cells in well	191	230
19	Dnajc3 (DnaJ heat shock protein family (Hsp40) member C3)	1	-0.04	enough cells in well	166	179
20	Clock (clock circadian regulator)	1	-0.32	enough cells in well	230	176
21	Pigb (phosphatidylinositol glycan anchor biosynthesis, class B)	1	-0.86	enough cells in well	93.1	106
22	Homez (homeodomain leucine zipper-encoding gene)	1	0.02	enough cells in well	237	172
23	Matk (megakaryocyte-associated tyrosine kinase)	1	0.22	enough cells in well	181	200
24	Tank (TRAF family member-associated Nf-kappa B activator)	1	-0.9	enough cells in well	195	72.6
25	Brinp2	1	1.73	enough cells in well	274	238
26	Atad1 (ATPase family, AAA domain containing 1)	1	-0.91	enough cells in well	117	116
27	Top3a (topoisomerase (DNA) III alpha)	1	1.25	enough cells in well	307	206
28	Fen1 (flap structure specific endonuclease 1)	1	-0.63	enough cells in well	170	192
29	Zmym1 (zinc finger, MYM domain containing 1)	1	0.2	enough cells in well	122	146
30	Gsc (goosecoid homeobox)	1	0.81	enough cells in well	301	218
31	Naa80 (N(alpha)-acetyltransferase 80, NatH catalytic subunit)	1	-0.13	enough cells in well	235	211
32	1700012B09Rik (RIKEN cDNA 1700012B09 gene)	1	1.17	enough cells in well	286	122
33	Setx (senataxin)	1	-0.18	enough cells in well	130	183
34	Plekhf2 (pleckstrin homology and FYVE domain containing 2)	1	-0.59	enough cells in well	109	92.5
35	Or7g32 (olfactory receptor family 7 subfamily G member 32)	1	-0.91	enough cells in well	69.8	62.5
36	Kctd15 (potassium channel tetramerisation domain containing 15)	1	-0.54	enough cells in well	188	86.1
37	Themis (thymocyte selection associated)	1	-0.74	enough cells in well	161	72.6
38	Ccr5 (C-C motif chemokine receptor 5)	1	-0.18	enough cells in well	191	296
39	Prm3 (protamine 3)	1	-0.08	enough cells in well	130	122
40	Afm (afamin)	1	0.13	enough cells in well	199	212
41	Sec24b (SEC24 homolog B, COPII coat complex component)	1	0.34	enough cells in well	252	188
42	Slamf1 (signaling lymphocytic activation molecule family member 1)	1	0.19	enough cells in well	300	227
43	Spink5 (serine peptidase inhibitor, Kazal type 5)	1	-1.31 (active)	enough cells in well	67	111
44	Plpp5 (phospholipid phosphatase 5)	1	-0.66	enough cells in well	122	133
45	Thbd (thrombomodulin)	1	-0.2	enough cells in well	213	128
46	Arhgap15 (Rho GTPase activating protein 15)	1	-0.52	enough cells in well	161	116
47	Mucl1 (mucin-like 1)	1	2.86	enough cells in well	150	238
48	Slc9c1	1	-0.16	enough cells in well	254	140
49	Arf4 (ARF GTPase 4)	1	-1.04	enough cells in well	106	114
50	Tas2r118 (taste receptor, type 2, member 118)	1	-0.26	enough cells in well	278	88.5
51	Rbm10 (RNA binding motif protein 10)	1	-0.74	enough cells in well	79.3	115
52	Zbtb11os1 (zinc finger and BTB domain containing 11, opposite strand 1)	1		fewer than 50 cells per well; well left out of calls	138	65.1
53	Kcna3	1	-0.77	enough cells in well	177	111
54	Slc38a9	1	5.36 (active)	enough cells in well	440	209
55	Slc38a9	2	-0.6	enough cells in well	169	124
56	S100a14 (S100 calcium binding protein A14)	1	-0.23	enough cells in well	326	162
57	Klf7 (Kruppel-like transcription factor 7 (ubiquitous))	1	-1.17	enough cells in well	170	72.8
58	Ptger1 (prostaglandin E receptor 1 (subtype EP1))	1	-0.42	enough cells in well	263	33.5

Copied from the entries so far, 7 entries:
no.	Target gene	pool no.	Tnf reporter robust z-score	fewer than 50 cells in well	Tnf reporter intensity, replicate 1	Tnf reporter intensity, replicate 2
52	Zbtb11os1 (zinc finger and BTB domain containing 11, opposite strand 1)	1		fewer than 50 cells per well; well left out of calls	138	65.1
53	Kcna3	1	-0.77	enough cells in well	177	111
54	Slc38a9	1	5.36 (active)	enough cells in well	440	209
55	Slc38a9	2	-0.6	enough cells in well	169	124
56	S100a14 (S100 calcium binding protein A14)	1	-0.23	enough cells in well	326	162
57	Klf7 (Kruppel-like transcription factor 7 (ubiquitous))	1	-1.17	enough cells in well	170	72.8
58	Ptger1 (prostaglandin E receptor 1 (subtype EP1))	1	-0.42	enough cells in well	263	33.5
